Data on 23 compounds can be found in PubChem BioAssay (NCATS).

The nature of assay [1]: A High-Content qHTS Against Drug Library for the Identification of Small Molecules that Inhibit DYT1 Early Onset Primary Dystonia-Associated Cell Pathology (AID 1645839). Particulars: HEK293 Flp-In EGFP-delE TorsinA, punctate imaging, 48 h; measured here: cell count cytotoxicity. The essentials:
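Cells were seeded and left for 24 h, then dosed with compound alongside tetracycline induction of mutant EGFP-TorsinA. They were incubated for 48 h, fixed in 4% paraformaldehyde, permeabilized and imaged for mislocalization (%pathology) and cell count.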

Assay [2] is described as follows: qHTS Assay for Lipid Storage Modulators (AID 1519). To be noted: Drosophila S3 cells, BODIPY lipid droplet/cell ratio, laser cytometry, cells loaded with oleic acid; for AC50: measured here: lipid (BODIPY) channel AC50. The essentials:
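Cells seeded at 5,000 per well were treated with compounds over a concentration series and loaded with oleic acid (400 uM, as added). Lipid droplet fluorescence (488 nm excitation, 500-530 nm channel) was read by laser-scanning cytometry and normalized to 20 uM Triacsin C.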

Assay [3] can be described thus: S16 Schwann cell PMP22 intronic element beta-lactamase assay (AID 624044). To be noted: S16 rat Schwann cells, PMP22 element beta-lactamase FRET, 24 h; measured here: 460 nm blue channel. The essentials:
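Beta-lactamase reporter under a PMP22 intronic regulatory element in stable S16 rat Schwann cells; 24 h compound exposure. 460 nm blue signal normalized between DMSO (0%) and potassium clavulanate, with 535 nm FRET tracking viability; curves classed by r2 and response.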

Assay [4] in a line: qHTS Assay for Modulators of Human Peripheral Myelin Protein 22 (PMP22) Expression/Activity (AID 1967). Particulars: Cell-based PMP22 reporter, dual-color luciferase ratio. An outline of the steps: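 Readout is the corrected green/red luminescence ratio after 24 h compound exposure, normalised to untreated cells (0%). Engineered MSC80 mouse Schwann cells express green luciferase from the mouse Pmp22 promoter and red luciferase from EF-alpha as internal control.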
(qHTS replaces the single test concentration by a dilution series.)

The nature of assay [5]: qHTS assay for small molecule antagonists of androgen receptor signaling (AID 588516). Particulars: AR-UAS-bla HEK293, beta-lactamase ratio, antagonist mode, 16 h; measured here: W460 blue channel fit. The essentials: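 Antagonist mode: inhibition of R1881-stimulated (10 nM final) bla reporter in GeneBLAzer AR HEK 293 cells, 16 h at 37C, compounds titrated. IC50 and efficacy from Hill-equation fits of 405/460–530 nm FRET ratios.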

The nature of assay [6]: qHTS assay for small molecule antagonists of peroxisome proliferator-activated receptor delta signaling (AID 588535).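 Note: cells co-treated with a PPAR-delta agonist as stimulator during compound exposure.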 To be noted: HEK293T PPARd-UAS-bla, beta-lactamase FRET ratio, 18 h; 460 nm channel. The essentials:
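Beta-lactamase reporter read-out (405 nm excitation, 460/530 nm emission) after CCF4 loading for 2 hrs at RT. HEK293T PPAR-delta-UAS-bla cells, 2% charcoal/dextran FBS, compounds for 18 hrs at 37 C. Hill fit gave IC50 and efficacy.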

Assay [7] is described as follows: qHTS Validation Assay to Find Inhibitors of Chronic Active B-Cell Receptor Signaling (AID 485345). Particulars: ABC-DLBCL cells, chronic BCR signaling reporter. The essentials:
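TMD8 ABC-DLBCL cells stably carrying doxycycline-inducible IkappaBalpha–green luciferase fusion plus unfused red luciferase; compounds 46 uM to 3 nM, 4 h at 37C with doxycycline. Corrected green/red luminescence ratio normalized to 10 uM MG-132 and basal cell wells; curves fitted.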

A short description of assay [8]: Nrf2 qHTS screen for inhibitors: Validation (AID 493153). Particulars: A549 ARE-Fluc reporter, 18-24 h; AC50: CellTiter-Fluor fluorescence read, measured here: cytotoxicity CellTiter-Fluor AC50; viability change: measured here: cytotoxicity max response. The essentials:
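Concentration-response test in A549 ARE_Fluc reporter cells (5% FBS OPTI-MEM), compound exposure 18-24 h at 37°C, 5% CO2. Cell viability measured first by CellTiter-Fluor fluorescence; ARE-driven luciferase luminescence then measured as Nrf2 activity.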

Assay [9] in a line: qHTS Assay for Inhibitors of PDE-IV (AID 607). To be noted: HEK293 ACTOne CNG channel cells, membrane potential fluorescence; measured here: parental cell counter-screen. The essentials:
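The readout is membrane depolarisation from a cAMP-sensing CNG channel, detected with a potential dye at ex 535/em 590. Cells were HEK293-derived (endogenous PDE-IV) at 1000 cells/well, titrated up to 22.9 uM final.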

Assay [10] is described as follows: qHTS assay for small molecule antagonists of peroxisome proliferator-activated receptor gamma signaling (AID 588537). Particulars: HEK293 PPARg-UAS-bla, beta-lactamase ratio, antagonist mode; measured here: W460 blue channel. The essentials: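 Read-out: CCF4 fluorescence (ex 405, em 460/530 nm) after 2 h at RT. Cells were HEK293 carrying a UAS-bla reporter and treated 16 h at 37 C with compound plus rosiglitazone (50 nM final). Normalized to rosiglitazone and DMSO.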

The nature of assay [11]: qHTS assay for small molecule antagonists of glucocorticoid receptor signaling (AID 588533). Particulars: HeLa MMTV-bla, GRE beta-lactamase ratio, antagonist mode, 18 h; measured here: W530 channel AC50.
Assay [12] in a line: qHTS assay for small molecule antagonists of vitamin D receptor signaling (AID 588541). Particulars: HEK293T VDR-UAS-bla, beta-lactamase ratio, antagonist mode; measured here: W460 blue channel (cell viability).
Assay [13] is described as follows: qHTS assay for small molecule antagonists of retinoid X receptor alpha signaling (AID 588546).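 Note: cells stimulated with 9-cis-retinoic acid as agonist; % is set by controls: 0 for no effect and ±100 for the full control effect.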 Particulars: HEK293T RXRa-UAS-bla, beta-lactamase ratio, antagonist mode; measured here: W530 green channel, cytotoxicity proxy. The essentials: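 Beta-lactamase reporter inhibition, read as CCF4 fluorescence ratio (ex 405, em 460/530 nm) after 2 h at RT. HEK293T UAS-bla cells, 2500/well, were stimulated with 9-cis-RA at 500 or 100 nM final alongside test compound for 18 h at 37 C.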

Where [14] appears, read: measured here: cell count channel max response.
Where [15] appears, read: measured here: lipid channel max response.
Where [16] appears, read: measured here: green reporter channel AC50, mouse Pmp22 promoter in mouse Schwann cells.
Setting [17] is: measured here: red reporter channel AC50, EF-alpha promoter control reporter in MSC80 mouse Schwann cells.
[18] abbreviates: measured here: CBR control luciferase (viability counter).

“And” between values parts separate entries of the source, which are not always exact repeats. Equal values may be shown once. The list shows a part of the results. The main result of the screen is listed elsewhere. These columns were measured beside it and carry no call. Most of these compounds were active or inconclusive in the main read-out, so they are no random draw. For part of these data: Words in brackets tell the shape of the fitted curve; partial curves, single points and poor fits give uncertain potencies.

One may read the AC50 as the concentration at which the activity in the assay is half-maximal. As to `COc1cc(CC(C)N)c(OC)cc1Br` (configuration not stated), in [1], the AC50 is 63.1 µM [falling, single point].

On to `CCCCCCCCCCCCCCCC[n+]1ccccc1`, for which the AC50 in assay [2] was 7.94 µM [falling, partial curve]; in assay [3], 5.62 µM [falling, full curve].

Consider `CC1OC1P(=O)(O)O` (configuration not stated), for which the values for the max response in assay [2] (setting [14]) and in [2] (setting [15]) were 32.6% and 32.9%, respectively. Further, the AC50 is 13.5 µM [rising, partial curve, poor fit] in [4] (setting [16]) and 12 µM [rising, partial curve] in assay [4] (setting [17]).

Regarding `CCCN(CCC)c1c([N+](=O)[O-])cc(C(F)(F)F)cc1[N+](=O)[O-]`, the max response in assay [2] (setting [14]) was -64.9%; in assay [2] (setting [15]), -87.3%; in assay [6] it was -15.6%. Moreover, the AC50 in assay [5] was 11.2 µM [falling, partial curve, poor fit].

`CC(CC(C#N)(c1ccccc1)c1ccccc1)N(C)C` (configuration not stated): the AC50 in assay [1] is 31.6 µM [falling, single point].

Consider `COc1cc([C@@H]2c3cc4c(cc3[C@H](O)C3COC(=O)[C@@H]32)OCO4)cc(OC)c1OC` (some centres not stated), for which the max response turned out to be 50.3% in [2] (setting [14]) and 52.2% in assay [2] (setting [15]). The AC50 in [7] (setting [18]) is 0.103 µM [rising, full curve]; in assay [8] it was 0.013 µM [falling, full curve]. In addition, the viability change in assay [8] was -27.3%.

As for `C[C@]12CC[C@@H]3c4ccc(OC(=O)N(CCCl)CCCl)cc4CC[C@H]3[C@@H]1CC[C@@H]2O`, the AC50 in [1] is 10 µM [falling, partial curve, poor fit].

Turning to `CO[C@]12CC[C@@]3(C[C@@H]1[C@](C)(O)C(C)(C)C)[C@@H]1Cc4ccc(O)c5c4[C@@]3(CCN1CC1CC1)[C@H]2O5`, the AC50 in assay [1] was 56.2 µM [falling, single point].

With `CN1[C@@H]2CC[C@H]1CC(OC(=O)c1cc(Cl)cc(Cl)c1)C2` (some centres not stated), the AC50 in assay [1] is 35.5 µM [falling, single point].

For `c1ccc([C@H]2CNCc3ccccc32)cc1`, in [9], the AC50 was 15.8 µM [rising, partial curve]. The max response turned out to be 67.1% in assay [2] (setting [14]) and 88.4% in assay [2] (setting [15]).

Take `CNC(C)Cc1ccccc1OC` (configuration not stated): in assay [1], the AC50 is 35.5 µM [falling, single point].

In the case of `COc1cc(C[C@@H](C)N)c(OC)cc1I`, the max response in [2] (setting [14]) and in assay [2] (setting [15]) was 42.9% each time. The AC50 is 67.5 µM [falling, partial curve] in [4] (setting [16]) and 84.9 µM [falling, single point] in assay [4] (setting [17]).

Take `CN(C)[C@@H]1C(=O)C(C(N)=O)=C(O)[C@@]2(O)C(=O)C3=C(O)c4c(O)cccc4[C@@](C)(O)[C@H]3C[C@@H]12`: the AC50 in [1] was 7.94 µM [rising, partial curve, poor fit].

In the case of `CC1=C2[C@H]3OC(=O)[C@@H](C)[C@@H]3CC[C@@]2(C)C=CC1=O`, the AC50 in [1] was 2.51 µM [rising, full curve, poor fit].

Consider `CCN[C@@H](C)Cc1ccccc1`, for which the AC50 in [1] is 63.1 µM [falling, single point].

In the case of `c1ccc(N2CCNCC2)cc1`, in assay [1], the half-maximal activity concentration (AC50) was 2.51 µM [falling, partial curve, poor fit].

In the case of `NCC(O)c1ccc(O)cc1` (configuration not stated), the max response came to 52.8% in assay [2] (setting [14]) and 56.4% in assay [2] (setting [15]). Also, the AC50 in assay [10] is 50.1 µM [rising, single point].

In the case of `CNCC(=O)c1ccc(O)c(O)c1`, the AC50 in [1] was 12.6 µM [falling, partial curve, poor fit].

As to `CN1C2CCC(C)(C)C1CC(OC(=O)C(O)(c1cccs1)c1cccs1)C2` (configuration not stated), in [1], the AC50 is 35.5 µM [falling, single point].

With `NC(=O)c1cc(N2CC2)c([N+](=O)[O-])cc1[N+](=O)[O-]`, the max response in assay [2] (setting [14]) is 40.1%; in assay [2] (setting [15]) it was 39.4%. Besides, the AC50 in [4] (setting [17]) is 75.7 µM [falling, single point]. The viability change in assay [8] was -1.06%.

Turning to `CCCCCCCCCCCCCCCC[N+](C)(C)C`, the AC50 in assay [2] is 10 µM [falling, partial curve]; in assay [11], 50.1 µM [falling, partial curve, poor fit]; in assay [12], 50.1 µM [falling, single point]; in [3], 25.1 µM [falling, single point]; in [1] it was 7.08 µM [falling, partial curve, poor fit]. Further, the max response is 143% in assay [6] and -53.9% in assay [13].

For `Cc1c2ccncc2c(C)c2c1[nH]c1ccccc12`, the max response was -12.4% and 52.1% in assay [2] (setting [14]); -46% and 50.1% in [2] (setting [15]). In addition, the half-maximal activity concentration (AC50) is 53.6 µM [falling, partial curve, poor fit] in [4] (setting [16]); 7.57 µM [falling, partial curve] in [4] (setting [17]); 29.1 µM [falling, single point] in assay [7] (measured here: CBG/CBR ratio read-out); 2.06 µM [falling, full curve] in assay [7] (setting [18]); 10.3 µM [falling, partial curve] in [8]. Also, the viability change in [8] was -33.9%.

For the compound `CCN(CC)C(=O)[C@@H]1C=C2c3cccc4[nH]cc(c34)C[C@H]2N(C)C1`, the AC50 in [1] was 141 µM [falling, single point].
